In patent US20180369230A1, “TARGETED SELECTION OF PATIENTS FOR TREATMENT WITH SPECIFIC CORTISTATIN DERIVATIVES” (President and Fellows of Harvard College, priority 2015, published 2018):

Test system: SET-2 cells
Assay: Gene expression, gene set enrichment analysis (GSEA)
Assay type: cell-based, human
Details: SET-2, 4 h 25 nM
Experimental: Leukemia cells were plated (12-well) in triplicate at 500,000-800,000 cells per ml and incubated in the presence of vehicle (0.1% DMSO) or CA (25 nM 3 h for K562, MOLM-14 and MV4;11; 10 nM 24 h for MOLM-14; 25 nM 4 h for SET-2, n=3 for each cell line). Cells were then washed twice with cold PBS, and snap frozen. RNA was isolated (RNeasy Plus Microkit, Qiagen or TRIzol, Life Technologies), processed, and, for K562, MOLM-14 and MV4;11, hybridized to the Human U133 Plus 2.0 microarray (Affymetrix). Microarrays were processed with Bioconductor packages affyQCReport for quality control and affy for background correction, summarization, and normalization using rma. […] SET-2 and HCT 116 gene expression was measured by RNA-seq. […] Reads were aligned in two passes, first with rnaStar (v.2.3.0e) then with BWA (v.0.7.5a) for remaining unmapped reads, both using default parameters. Mapped reads were merged and counted using HTSeq (v.0.5.3p3) with -s yes -m intersection-strict. […] Samples were run in a single lane on an Illumina HiSEQ 2000 sequencer with a single read flow cell using 1×50-bp reads and a 6-cycle index read. Reads were mapped to the hg19 reference genome using Tophat2 v.2.0.6 with custom settings including the setting of -library-type fr- firstrand to appropriately account for the stranded nature of the protocol. […]

Cortistatin A
Rank of 4,310 (signature: GATA1/GATA2/RUNX1/FLI1/SCL Binding Sites in Mks): 100 | Rank of 4,310 (signature: GATA1/SCL Binding sites in Mks): 12
